From PMC7615741
Like-named read-outs stand apart in the source and are kept apart here. These are yes or no findings as the source states them, for the method shown. Binding seen in cells or lysates may run through a third protein. A yes stands for co-enrichment or nearness to the bait. Other partners may have been found.

T1: AtEH1-linker-TurboID (A. thaliana) (UniProt Q9LM78)
T1 sequence: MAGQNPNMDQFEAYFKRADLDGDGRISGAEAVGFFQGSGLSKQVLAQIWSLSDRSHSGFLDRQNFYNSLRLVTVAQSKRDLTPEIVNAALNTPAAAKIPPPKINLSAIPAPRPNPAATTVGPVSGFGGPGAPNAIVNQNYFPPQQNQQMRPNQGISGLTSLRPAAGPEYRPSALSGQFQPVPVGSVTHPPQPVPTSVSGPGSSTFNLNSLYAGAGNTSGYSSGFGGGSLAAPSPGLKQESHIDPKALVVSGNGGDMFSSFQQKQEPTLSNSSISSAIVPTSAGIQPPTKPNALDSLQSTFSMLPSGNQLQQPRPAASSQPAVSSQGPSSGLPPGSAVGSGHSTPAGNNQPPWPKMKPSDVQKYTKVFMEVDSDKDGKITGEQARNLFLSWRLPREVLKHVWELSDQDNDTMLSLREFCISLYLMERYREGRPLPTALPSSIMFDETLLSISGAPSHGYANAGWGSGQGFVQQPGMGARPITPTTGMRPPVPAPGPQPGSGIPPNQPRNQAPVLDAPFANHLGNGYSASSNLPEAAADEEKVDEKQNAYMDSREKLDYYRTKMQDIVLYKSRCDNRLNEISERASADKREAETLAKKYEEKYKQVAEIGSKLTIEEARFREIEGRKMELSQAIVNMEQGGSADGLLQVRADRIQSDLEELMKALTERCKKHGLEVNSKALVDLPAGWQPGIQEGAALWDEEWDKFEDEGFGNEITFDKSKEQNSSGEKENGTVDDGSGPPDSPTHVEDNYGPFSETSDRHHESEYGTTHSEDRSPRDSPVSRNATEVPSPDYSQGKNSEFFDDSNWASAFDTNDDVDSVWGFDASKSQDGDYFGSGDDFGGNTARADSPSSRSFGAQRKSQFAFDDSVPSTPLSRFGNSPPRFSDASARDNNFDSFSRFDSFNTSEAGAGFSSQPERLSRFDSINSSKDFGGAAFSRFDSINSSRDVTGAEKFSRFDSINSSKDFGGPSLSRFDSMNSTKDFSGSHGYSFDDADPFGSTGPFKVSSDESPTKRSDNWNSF

B1: TOM-1LIKE (TOL) protein TOL6 (protein, UniProt O80910 1-671)
chain: MASSSASATVAVDKATSDLLLGPDWTTNMEICDSVNSLHWQAKDVVKAVKKRLQHKSSRVQLLALTLLETLVKNCGDYLHHQVAEKNILGEMVKIVKKKADMQVRDKILVMVDSWQQAFGGPEGKYPQYYWAYDELRRSGVEFPRRSPDASPIITPPVSHPPLRQPQGGYGVPPAGYGVHQAGYGVPQAGYGIPQAGYGVPQAGYGIPQVGYGMPSGSSRRLDEAMATEVEGLSLSSIESMRDVMDLLGDMLQAVDPSDREAVKDEVIVDLVERCRSNQKKLMQMLTSTGDDELLGRGLDLNDSLQILLAKHDAIASGSPLPVQASGSPLSVQASKPADSSPKSSEAKDSSSIAGSSSPIPATVSTGKSPIDEEYEEEEDEFAQLARRHSKPPASVTTDPTSLESHNAASNALALALPDPPPPVNTTKEQDMIDLLSITLCTPSTPPAPSSQPSPPPPAGSDQNTHIYPQPQPRFDSYVAPWAQQQQPQQPQAQQGYSQHQQHQQQQGYSQPQHSQQQQGYSQLQQPQPQQGYSQSQPQAQVQMQPSTRPQNPYEYPPPPWASTSANAYYTPRANASASYTDTSALAGRSLQQSNSFPTRAGDPQATSTASNSGVSVGQKPFVPSYRLFEDLDVFGSADGKHNKPANSSNGSQNLSGSQTQQSMIGGRKMI
B2: TOM-1LIKE (TOL) protein TOL9 (protein, UniProt Q8L860 1-675)
chain: MVNAMVERATSEMLIGPDWAMNLEICDMLNSDPAQAKDVVKGIKKRIGSRNPKAQLLALTLLETIVKNCGDMVHMHVAEKGVIHEMVRIVKKKPDFHVKEKILVLIDTWQEAFGGPRARYPQYYAGYQELLRAGAVFPQRSERSAPVFTPPQTQPLTSYPPNLRNAGPGNDVPEPSAEPEFPTLSLSEIQNAKGIMDVLAEMLSALEPGNKEDLKQEVMVDLVEQCRTYKQRVVHLVNSTSDESLLCQGLALNDDLQRVLTNYEAIASGLPGTSSQIEKPKSETGKSLVDVDGPLIDTGDSSNQANGATSSSGNGVLNQLALPAPPVTNGSANSKIDLLSGDDLALVPVGPPQPASPVASDQNALALIDMFSDNTNNPSPATAPSGNPAQNIPLNPQGHQQPNSQAGEAGLQQSNGFAPQVGYSQFEQPSYGQGVSSPWSSQPAQQPVQPSYGAQDSTAFPPPPWEAQLQDYSPSAESGSPFSPGMHPTQTAFTHAQPVNNNNPYPQIPQTGPPVNNNSPYAQMPQTGQAVANISPYPQIPQNGVYMPNQPNQALGSGYQPQQQQQQQMMMAQYYAQQQQLQQQQQQQAYGNQMGGYGYGYNQQQQGSSPYLDQQMYGLSMRDQTSHQVASSSSTTSYLPPMKPKNKPEDKLFGDLVDISKFKPTKPTSGRAGTM
B3: Auxilin-like1 (protein, UniProt Q9SU08 1-904)
chain: MDDFTGLLARDFGLKPQGKSAPMASQSNSSAADFNTFASSYSFATAAGKKSDSLPVFDDPGRDGDDLLFKDVFSGPPPPKYGSSSGDSRSPSAPAFDYDAMFKEPKSKSASSMPVYDKPVYDDEDVFESIPELKIPSTSSQSARFENVFSSISSSPTKHRKQNSSPFDDLMGNNLGKKGADSDREEKGSSIFDDLIPGFGRTSSPPSKRTTSETTNQSEKAPYRTAETSSNVEEDPFVVLEESESTPREPSRTDPLDDIGKFNSRKTDHSSVHGGVFVDIDPLDNLGKPGPDMNSKGKSHLRPPGNISGSQSPPVESPGSYHSKKVSFEDFLEPHNMSTPPPTNSNGSFESSDDVWLTVSEIPLFTQPTSAPPPTRPPPPRPTRPIKKKVNEPSIPTSAYHSHVPSSGRASVNSPTASQMDELDDFSIGRNQTAANGYPDPSSGEDSDVFSTAAASAAAMKDAMDKAEAKFRHAKERREKENLKASRSREGDHTENYDSRERELREKQVRLDRERAEREAEMEKAQEREKEEREREQKRIERERERLVARQAVERATREARERAATEAHAKVQRAAVGKATDARERAERAAVQRAHAEARERAAAGARDKAAKAAAEAREKAEKAAAEAKERANAEAREKETRVRAERAAVERAAAEARGRAAAQAKAKQQQENTNDLDSFFSSISRPNSAPRQRTNPLDPFQDSWNKGGSFESSRESLRVPPGQPENLRKTSSVTNIVDDLSSIFGASASQSGGFQDVDGETEERRRARLERHQRTQERAAKALAEKNERDLQVQREQVEKDRIGVTLDVEIKRWGAGKEGNLRALLSTLQYVLWPECGWQPVSLTDLITAASVKKVYRKATLCIHPDKVQQKGANLQQKYIAEKVFDMLKEAWNKFNSEELF
B4: Med15a (protein, UniProt F4I171 1-1335)
chain: MDNNNWRPSLPNGEPAMDTGDWRTQLPPDSRQKIVNKIMETLKKHLPFSGPEGINELRRIAARFEEKIFSGALNQTDYLRKISMKMLTMETKSQNAAGSSAAIPAANNGTSIDSIPTNQGQLLPGSLSTNQSQAPQPLLSQTMQNNTASGMTGSTALPSSMPPVSSITNNNTTSVVNQNANMQNVAGMLQDSSGQHGLSSNMFSGPQRQMLGRPHAMSSQQQQQPYLYQQQLQQQLLKQNFQSGNVPNPNSLLPSHIQQQQQNVLQPNQLHSSQQPGVPTSATQPSTVNSAPLQGLHTNQQSSPQLSSQQTTQSMLRQHQSSMLRQHPQSQQASGIHQQQSSLPQQSISPLQQQPTQLMRQQAANSSGIQQKQMMGQHVVGDMQQQHQQRLLNQQNNVMNIQQQQSQQQPLQQPQQQQKQQPPAQQQLMSQQNSLQATHQNPLGTQSNVAGLQQPQQQMLNSQVGNSSLQNNQHSVHMLSQPTVGLQRTHQAGHGLYSSQGQQSQNQPSQQQMMPQLQSHHQQLGLQQQPNLLQQDVQQRLQASGQVTGSLLPPQNVVDQQRQLYQSQRTLPEMPSSSLDSTAQTESANGGDWQEEVYQKIKSMKETYLPDLNEIYQRVAAKLQQDSMPQQQRSDQLEKLRQFKTMLERMIQFLSVSKSNIMPALKDKVAYYEKQIIGFLNMHRPRKPVQQGQLPQSQMQPMQQPQSQTVQDQSHDNQTNPQMQSMSMQGAGPRAQQSSMTNMQSNVLSSRPGVSAPQQNIPSSIPASSLESGQGNTLNNGQQVAMGSMQQNTSQLVNNSSASAQSGLSTLQSNVNQPQLSSSLLQHQHLKQQQDQQMQLKQQFQQRQMQQQQLQARQQQQQQQLQARQQAAQLQQMNDMNDLTSRQGMNVSRGMFQQHSMQGQRANYPLQQLKPGAVSSPQLLQGASPQMSQHLSPQVDQKNTVNKMGTPLQPANSPFVVPSPSSTPLAPSPMQVDSEKPGSSSLSMGNIARQQATGMQGVVQSLAIGTPGISASPLLQEFTSPDGNILNSSTITSGKPSATELPIERLIRAVKSISPQALSSAVSDIGSVVSMVDRIAGSAPGNGSRASVGEDLVAMTKCRLQARNFMTQEGMMATKKMKRHTTAMPLSVASLGGSVGDNYKQFAGSETSDLESTATSDGKKARTETEHALLEEIKEINQRLIDTVVEISDDEDAADPSEVAISSIGCEGTTVRFSFIAVSLSPALKAHLSSTQMSPIQPLRLLVPCSYPNGSPSLLDKLPVETSKENEDLSSKAMARFNILLRSLSQPMSLKDIAKTWDACARAVICEYAQQFGGGTFSSKYGTWEKYVAAS

Columns and labels:
[1] = target: T1, AtEH1-linker-TurboID (A. thaliana); assay: proximity labelling; TurboID with AtEH1-linker-TurboID as bait in PSB-D A. thaliana cell suspension cultures; mass spectrometry; enrichment against a large set of TurboID experiments with unrelated baits
[2] = target: T1, AtEH1-linker-TurboID (A. thaliana); assay: as above; remark: listed apart in the source

Row | Molecule | binding [1] | binding [2]
1 | Auxilin-like2 | binds | –
2 | B1 | – | binds
3 | B2 | – | binds
4 | B3 | – | binds
5 | B4 | – | binds
